In doi:10.1101/798884:
These are yes or no findings as the source states them, for the method shown. Binding seen in cells or lysates may run through a third protein. Some entries that bind do so weakly or less than the wild type. Blank lines part the entries; values can stand above or below the molecule they belong to.

Amino acid sequences for entries named in this document (tags omitted).
UniProt P35637, whole entry: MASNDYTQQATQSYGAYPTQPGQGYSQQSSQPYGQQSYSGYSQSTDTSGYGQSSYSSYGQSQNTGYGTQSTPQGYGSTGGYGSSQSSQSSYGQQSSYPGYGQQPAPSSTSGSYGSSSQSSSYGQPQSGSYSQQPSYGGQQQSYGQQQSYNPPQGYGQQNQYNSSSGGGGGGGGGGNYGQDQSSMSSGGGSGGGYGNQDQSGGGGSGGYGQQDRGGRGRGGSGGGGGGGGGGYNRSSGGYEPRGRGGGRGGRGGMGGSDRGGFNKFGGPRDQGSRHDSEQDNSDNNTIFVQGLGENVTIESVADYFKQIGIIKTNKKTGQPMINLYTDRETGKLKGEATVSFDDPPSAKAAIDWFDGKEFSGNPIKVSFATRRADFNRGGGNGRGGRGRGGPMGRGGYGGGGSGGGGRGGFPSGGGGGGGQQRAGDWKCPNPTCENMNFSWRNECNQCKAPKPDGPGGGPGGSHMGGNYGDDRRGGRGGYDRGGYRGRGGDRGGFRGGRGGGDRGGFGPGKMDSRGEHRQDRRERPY
UniProt Q12905, whole entry: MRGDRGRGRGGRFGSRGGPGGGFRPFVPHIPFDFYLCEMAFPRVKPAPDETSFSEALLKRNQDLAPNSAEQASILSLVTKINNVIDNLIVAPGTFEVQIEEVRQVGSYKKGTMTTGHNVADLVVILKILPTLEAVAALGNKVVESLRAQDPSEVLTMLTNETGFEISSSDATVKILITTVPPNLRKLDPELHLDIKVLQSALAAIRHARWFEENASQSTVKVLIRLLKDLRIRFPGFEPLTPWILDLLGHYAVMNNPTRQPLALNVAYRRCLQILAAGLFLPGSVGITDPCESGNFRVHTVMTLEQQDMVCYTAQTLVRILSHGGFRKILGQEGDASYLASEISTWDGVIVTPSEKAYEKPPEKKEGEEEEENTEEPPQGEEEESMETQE
UniProt P13010, whole entry: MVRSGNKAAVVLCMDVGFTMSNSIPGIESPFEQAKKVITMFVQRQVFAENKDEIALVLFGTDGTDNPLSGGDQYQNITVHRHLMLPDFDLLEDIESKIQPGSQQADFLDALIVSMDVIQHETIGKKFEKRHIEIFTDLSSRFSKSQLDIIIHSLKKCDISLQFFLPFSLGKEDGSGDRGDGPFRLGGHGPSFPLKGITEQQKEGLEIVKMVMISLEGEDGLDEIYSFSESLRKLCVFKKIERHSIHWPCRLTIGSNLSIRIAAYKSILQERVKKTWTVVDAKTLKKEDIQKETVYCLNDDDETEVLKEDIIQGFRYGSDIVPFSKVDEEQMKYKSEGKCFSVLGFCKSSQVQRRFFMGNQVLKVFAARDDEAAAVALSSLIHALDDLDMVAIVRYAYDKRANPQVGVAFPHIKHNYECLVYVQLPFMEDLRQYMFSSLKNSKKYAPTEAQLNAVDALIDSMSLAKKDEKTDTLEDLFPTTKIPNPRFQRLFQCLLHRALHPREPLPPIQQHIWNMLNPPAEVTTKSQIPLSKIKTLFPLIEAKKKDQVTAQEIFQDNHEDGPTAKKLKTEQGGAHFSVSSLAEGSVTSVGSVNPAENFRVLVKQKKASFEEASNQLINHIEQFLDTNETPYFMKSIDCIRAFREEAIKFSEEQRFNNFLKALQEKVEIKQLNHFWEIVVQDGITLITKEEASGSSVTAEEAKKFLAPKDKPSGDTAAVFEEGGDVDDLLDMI
UniProt P22626, whole entry: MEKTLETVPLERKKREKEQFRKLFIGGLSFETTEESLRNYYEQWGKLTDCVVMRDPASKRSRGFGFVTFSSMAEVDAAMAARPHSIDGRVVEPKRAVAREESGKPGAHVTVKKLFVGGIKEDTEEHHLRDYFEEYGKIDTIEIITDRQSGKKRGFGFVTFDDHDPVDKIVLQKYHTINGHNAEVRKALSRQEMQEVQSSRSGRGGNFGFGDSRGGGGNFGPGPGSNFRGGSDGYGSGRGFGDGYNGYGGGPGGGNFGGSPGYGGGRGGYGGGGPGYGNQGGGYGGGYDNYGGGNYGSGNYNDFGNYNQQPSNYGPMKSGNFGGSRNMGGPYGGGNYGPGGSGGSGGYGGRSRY

Legend:
[1] = target: Flag-tagged FUS (Fused-in-sarcoma) (UniProt P35637); assay: co-IP + SEC
[2] = target: FUS (Fused-in-sarcoma), endogenous (UniProt P35637); assay: co-IP

binding [1]: binds
Molecule: ILF2 (from UniProt Q12905 1-390)

binding [1]: binds
Molecule: XRCC5/KU80 (from UniProt P13010 1-732)

binding [2]: binds
binding [1]: binds
Molecule: hnRNP A2 (smaller isoform of hnRNP A2/B1, 36 kDa) (from UniProt P22626-2 1-341)

binding [1]: binds
Molecule: hnRNP B1 (large isoform of hnRNP A2/B1, 37.4 kDa) (from UniProt P22626-1 1-353)

binding [1]: binds
B1: SFPQ/NONO heterodimer (complex, UniProt P23246 1-707; Q15233 1-471)
chain 1: MSRDRFRSRGGGGGGFHRRGGGGGRGGLHDFRSPPPGMGLNQNRGPMGPGPGQSGPKPPIPPPPPHQQQQQPPPQQPPPQQPPPHQPPPHPQPHQQQQPPPPPQDSSKPVVAQGPGPAPGVGSAPPASSSAPPATPPTSGAPPGSGPGPTPTPPPAVTSAPPGAPPPTPPSSGVPTTPPQAGGPPPPPAAVPGPGPGPKQGPGPGGPKGGKMPGGPKPGGGPGLSTPGGHPKPPHRGGGEPRGGRQHHPPYHQQHHQGPPPGGPGGRSEEKISDSEGFKANLSLLRRPGEKTYTQRCRLFVGNLPADITEDEFKRLFAKYGEPGEVFINKGKGFGFIKLESRALAEIAKAELDDTPMRGRQLRVRFATHAAALSVRNLSPYVSNELLEEAFSQFGPIERAVVIVDDRGRSTGKGIVEFASKPAARKAFERCSEGVFLLTTTPRPVIVEPLEQLDDEDGLPEKLAQKNPMYQKERETPPRFAQHGTFEYEYSQRWKSLDEMEKQQREQVEKNMKDAKDKLESEMEDAYHEHQANLLRQDLMRRQEELRRMEELHNQEMQKRKEMQLRQEEERRRREEEMMIRQREMEEQMRRQREESYSRMGYMDPRERDMRMGGGGAMNMGDPYGSGGQKFPPLGGGGGIGYEANPGVPPATMSGSMMGSDMRTERFGQGGAGPVGGQGPRGMGPGTPAGYGRGREEYEGPNKKPRF
chain 2: MQSNKTFNLEKQNHTPRKHHQHHHQQQHHQQQQQQPPPPPIPANGQQASSQNEGLTIDLKNFRKPGEKTFTQRSRLFVGNLPPDITEEEMRKLFEKYGKAGEVFIHKDKGFGFIRLETRTLAEIAKVELDNMPLRGKQLRVRFACHSASLTVRNLPQYVSNELLEEAFSVFGQVERAVVIVDDRGRPSGKGIVEFSGKPAARKALDRCSEGSFLLTTFPRPVTVEPMDQLDDEEGLPEKLVIKNQQFHKEREQPPRFAQPGSFEYEYAMRWKALIEMEKQQQDQVDRNIKEAREKLEMEMEAARHEHQVMLMRQDLMRRQEELRRMEELHNQEVQKRKQLELRQEEERRRREEEMRRQQEEMMRRQQEGFKGTFPDAREQEIRMGQMAMGGAMGINNRGAMPPAPVPAGTPAPPGPATMMPDGTLGLTPPTTERFGQAATMEGIGAIGGTPPAFNRAAPGAEFAPNKRRRY

binding [1]: binds
B2: MATR3 (protein, UniProt P43243 1-847)
chain: MSKSFQQSSLSRDSQGHGRDLSAAGIGLLAAATQSLSMPASLGRMNQGTARLASLMNLGMSSSLNQQGAHSALSSASTSSHNLQSIFNIGSRGPLPLSSQHRGDADQASNILASFGLSARDLDELSRYPEDKITPENLPQILLQLKRRRTEEGPTLSYGRDGRSATREPPYRVPRDDWEEKRHFRRDSFDDRGPSLNPVLDYDHGSRSQESGYYDRMDYEDDRLRDGERCRDDSFFGETSHNYHKFDSEYERMGRGPGPLQERSLFEKKRGAPPSSNIEDFHGLLPKGYPHLCSICDLPVHSNKEWSQHINGASHSRRCQLLLEIYPEWNPDNDTGHTMGDPFMLQQSTNPAPGILGPPPPSFHLGGPAVGPRGNLGAGNGNLQGPRHMQKGRVETSRVVHIMDFQRGKNLRYQLLQLVEPFGVISNHLILNKINEAFIEMATTEDAQAAVDYYTTTPALVFGKPVRVHLSQKYKRIKKPEGKPDQKFDQKQELGRVIHLSNLPHSGYSDSAVLKLAEPYGKIKNYILMRMKSQAFIEMETREDAMAMVDHCLKKALWFQGRCVKVDLSEKYKKLVLRIPNRGIDLLKKDKSRKRSYSPDGKESPSDKKSKTDGSQKTESSTEGKEQEEKSGEDGEKDTKDDQTEQEPNMLLESEDELLVDEEEAAALLESGSSVGDETDLANLGDVASDGKKEPSDKAVKKDGSASAAAKKKLKKVDKIEELDQENEAALENGIKNEENTEPGAESSENADDPNKDTSENADGQSDENKDDYTIPDEYRIGPYQPNVPVGIDYVIPKTGFYCKLCSLFYTNEEVAKNTHCSSLPHYQKLKKFLNKLAEERRQKKET
